{"source": "PubChem BioAssay AID504795 (Drosophila RNAi Screening Center, 2011)", "purpose": "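Knock-downs causing abnormal branching, bundling, swelling or growth of cultured neurons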 (primary screen)", "cell system": "primary Drosophila neurons and glia", "reagent": "long dsRNA against Drosophila genes, 250 ng dsRNA per well", "duration": "one week", "measured": "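GFP-labelled neurons and glia imaged live by automated microscope one week after 250 ng dsRNA per well; morphology scored by eye as descriptive phenotype terms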", "note": "The reagents shown are a selection, not the whole library. 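Every listed dsRNA shows some phenotype; how reagents were selected for listing is not stated.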 The numbers tell different reagents against one gene apart. Names joined by + are all predicted targets of the reagent."}
{"Target gene": "CG34327", "reagent": 1, "phenotype seen, replicate 1": "axon bundles split apart", "phenotype seen, replicate 2": "axon bundles split apart"}
{"Target gene": "Cdk5alpha", "reagent": 1, "phenotype seen, replicate 1": "abnormal cell clusters"}
{"Target gene": "CG3402", "reagent": 1, "phenotype seen, replicate 1": "sheet-like cell extensions"}
{"Target gene": "CG15412", "reagent": 1, "phenotype seen, replicate 1": "too many neurite branches"}
{"Target gene": "stum", "reagent": 1, "phenotype seen, replicate 1": "axon bundles split apart"}
{"Target gene": "St2", "reagent": 1, "phenotype seen, replicate 1": "abnormal cell clusters"}
{"Target gene": "CG12935 + Nop10", "reagent": 1, "phenotype seen, replicate 1": "too many neurite branches"}
{"Target gene": "Ten-a", "reagent": 1, "phenotype seen, replicate 1": "axon bundles split apart"}
{"Target gene": "Ten-a", "reagent": 2, "phenotype seen, replicate 1": "too many neurite branches"}
{"Target gene": "vls", "reagent": 1, "phenotype seen, replicate 1": "too many neurite branches"}
{"Target gene": "CG6013", "reagent": 1, "phenotype seen, replicate 1": "reduced axon outgrowth"}
{"Target gene": "gogo", "reagent": 1, "phenotype seen, replicate 1": "reduced axon outgrowth", "phenotype seen, replicate 2": "abnormal cell clusters"}
{"Target gene": "gogo", "reagent": 2, "phenotype seen, replicate 1": "abnormal cell clusters"}
{"Target gene": "alpha-Est10", "reagent": 1, "phenotype seen, replicate 1": "reduced axon outgrowth"}
{"Target gene": "nmo", "reagent": 1, "phenotype seen, replicate 1": "axon bundles split apart"}
{"Target gene": "sala", "reagent": 1, "phenotype seen, replicate 1": "axon bundles split apart"}
{"Target gene": "CG12464", "reagent": 1, "phenotype seen, replicate 1": "too many neurite branches"}
{"Target gene": "CG14153", "reagent": 1, "phenotype seen, replicate 1": "too many neurite branches"}
{"Target gene": "B9d1", "reagent": 1, "phenotype seen, replicate 1": "abnormal cell clusters"}
{"Target gene": "CG17349", "reagent": 1, "phenotype seen, replicate 1": "too many neurite branches"}
{"Target gene": "byn", "reagent": 1, "phenotype seen, replicate 1": "axon bundles split apart"}
{"Target gene": "Pxt", "reagent": 1, "phenotype seen, replicate 1": "axon bundles split apart"}
{"Target gene": "nkd", "reagent": 1, "phenotype seen, replicate 1": "reduced axon outgrowth"}
{"Target gene": "RpS16", "reagent": 1, "phenotype seen, replicate 1": "axon bundles split apart"}
{"Target gene": "CG4511", "reagent": 1, "phenotype seen, replicate 1": "axon bundles split apart"}
{"Target gene": "Pdhb", "reagent": 1, "phenotype seen, replicate 1": "axon bundles split apart"}
{"Target gene": "lva", "reagent": 1, "phenotype seen, replicate 1": "sheet-like cell extensions"}
{"Target gene": "spartin", "reagent": 1, "phenotype seen, replicate 1": "fewer cells"}
{"Target gene": "bard", "reagent": 1, "phenotype seen, replicate 1": "axon bundles split apart"}
{"Target gene": "side-VIII", "reagent": 1, "phenotype seen, replicate 1": "too many neurite branches"}
{"Target gene": "CG32806", "reagent": 1, "phenotype seen, replicate 1": "axon bundles split apart"}
{"Target gene": "Nedd8", "reagent": 1, "phenotype seen, replicate 1": "axon bundles split apart"}

Reformatted: entries from further up.
Target gene	reagent	phenotype seen, replicate 1	phenotype seen, replicate 2
nkd	1	reduced axon outgrowth	
RpS16	1	axon bundles split apart	
